Data reported in PMC2935968.
Numbering of substitutions follows the chain as printed. Results are given in words; binding and its absence hold for the method and conditions named. Some binding calls cover weakened binding; strength is not graded here. For some of these results: Sequences can lack the tags named with a protein.

What was measured:
[1] = target: GST-Rar1 (wild type) (Arabidopsis thaliana) (UniProt Q9SE33); test: pull-down; GST-Rar1 constructs as bait, Hsp90 and Sgt1 both present; both purified
[2] = target: T1, GST-Rar1 K45E (Arabidopsis thaliana) (UniProt Q9SE33); test: as above
T1 sequence: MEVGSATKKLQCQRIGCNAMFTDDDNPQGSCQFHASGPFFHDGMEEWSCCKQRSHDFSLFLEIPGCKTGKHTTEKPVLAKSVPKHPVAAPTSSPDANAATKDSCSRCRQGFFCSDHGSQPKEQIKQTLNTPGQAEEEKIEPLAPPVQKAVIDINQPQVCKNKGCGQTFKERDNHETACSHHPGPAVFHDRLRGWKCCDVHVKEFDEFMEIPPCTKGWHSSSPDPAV

[3] = target: GST-Rar1 (wild type) (Arabidopsis thaliana) (UniProt Q9SE33); test: pull-down; GST-Rar1 as bait, Hsp90, increasing amounts of untagged Rar1 in competition; both purified
[4] = target: GST-Rar1 (wild type) (Arabidopsis thaliana) (UniProt Q9SE33); test: pull-down; GST-Rar1 as bait, Hsp90, untagged Rar1 and Sgt1-CS present; both purified
[5] = target: GST-Rar1 (wild type) (Arabidopsis thaliana) (UniProt Q9SE33); test: pull-down; GST-Rar1 constructs as bait, one partner alone (Hsp90 or Sgt1); recombinant proteins; conditions in the Supplemental Information; both purified
[6] = target: T2, GST-Rar1 W217T (Arabidopsis thaliana) (UniProt Q9SE33); test: as above
T2 sequence: T1 sequence with E45K, W217T

[7] = target: GST-Rar1 (wild type) (Arabidopsis thaliana) (UniProt Q9SE33); test: pull-down; GST-Rar1 as bait, Hsp90, isolated CHORDI added in competition (Figure S4C); both purified

Measured: binding

Hsp90 (from UniProt Q7XJ80 1-700)
binds: all assays above
